Like-named read-outs stand apart in the source and are kept apart here. Marks after values point to notes of the source that are not given here.
Experiments:
[1] = EDTA, RIA, cited from earlier work
[2] = CNP concentration in blood samples, CNP-22 EIA Kit (Phoenix); set-up: species or system human; details: mean ± SD
[3] = ELISA, mean ± SD, cited from earlier work; for CNP (pg/ml) Plasma: EDTA

C-type natriuretic peptide [CNP]
CNP (pg/ml) Plasma ([1]; ILVD (idiopathic left ventricle dysfunction), n = 51, mean ± SD): 7.0 ± 0.9*^R pg/ml
CNP (pg/ml) Plasma ([1]; cardiovascular disease, n = 120, arterial blood sample): 1.43*^R,a pg/ml
CNP (pg/ml) Plasma ([1]; childrens, age 1-12 years, n = 32, mean ± SD): 13.6 ± 2.3*^R pg/ml
CNP (pg/ml) Plasma ([1]; diabetes, n = 19, mean ± SD): 8.70 ± 1.62*^R pg/ml
CNP (pg/ml) Plasma ([1]; healthy adults, age 64 ± 1, n = 32, mean ± SD): 7.4 ± 1.0*^R pg/ml
CNP (pg/ml) Plasma ([1]; healthy, age 45 ± 6, n = 11, mean ± SD): 4.2 ± 0.4*^R pg/ml
CNP (pg/ml) Plasma ([1]; healthy, age 61 ± 2, n = 21, mean ± SD): 2.7 ± 0.2*^R pg/ml
CNP (pg/ml) Plasma ([1]; healthy, age 61 ± 2, n = 60, mean ± SD): 2.5 ± 0.12*^R pg/ml
CNP (pg/ml) Plasma ([1]; healthy, age 61 ± 2, n = 73, mean ± SD): 2.35 ± 0.11*^R pg/ml
CNP (pg/ml) Plasma ([1]; heart failure, n = 130, mean ± SD): 7.86 ± 0.41*^R pg/ml
CNP (pg/ml) Plasma ([1]; infants, age 1-12 m, n = 22, mean ± SD): 15.4 ± 2.7*^R pg/ml
CNP (pg/ml) Plasma ([1]; liver cirrhosis, RI (renal insufficiency), n = 20, mean ± SD): 2.7 ± 0.4*^R pg/ml
CNP (pg/ml) Plasma ([1]; liver cirrhosis, n = 24, mean ± SD): 4.97 ± 0.55*^R pg/ml
CNP (pg/ml) Plasma ([1]; liver cirrhosis, no RI, n = 20, mean ± SD): 3.0 ± 0.2*^R pg/ml
CNP (pg/ml) Plasma ([1]; newborns, age 0-3d, n = 41, mean ± SD): 11.6 ± 2.1*^R pg/ml
CNP (pg/ml) Plasma ([1]; newborns, age 4-30d, n = 24, mean ± SD): 16.4 ± 3.7*^R pg/ml
baseline concentration of CNP in full blood samples ([2]; 12 healthy male volunteers, fasting, Potassium-EDTA full blood sample, immediately centrifuged, CNP-22 EIA): 0.991 ± 0.489 ng/mL
baseline concentration of CNP in serum ([2]; 12 healthy male volunteers, fasting, serum (Kaolin clotting activator), immediately centrifuged, CNP-22 EIA): 0.997 ± 0.379 ng/mL
baseline concentration of CNP in plasma ([2]; 12 healthy male volunteers, fasting, sodium-citrate plasma, immediately centrifuged, CNP-22 EIA): 1.933 ± 0.699 ng/mL
CNP (pg/ml) Serum ([2]; present study, healthy, age 29 ± 2, n = 12, ELISA): 997 ± 379^E pg/ml
CNP (pg/ml) Plasma ([2]; present study, healthy, n = 12, sodium-citrate anticoagulated, ELISA): 1933 ± 699°^E pg/ml
CNP (pg/ml) Serum ([3]; Behcet, active, n = 28): 490 ± 120^E pg/ml
CNP (pg/ml) Serum ([3]; Behcet, inactive, n = 25): 650 ± 200^E pg/ml
CNP (pg/ml) Plasma ([3]; Hyperlipidemia, n = 44): 4100 ± 5800*^E pg/ml
CNP (pg/ml) Plasma ([3]; healthy controls, matched, n = 20): 5700 ± 3300*^E pg/ml
CNP (pg/ml) Serum ([3]; healthy, age 34 ± 6, n = 26): 800 ± 270^E pg/ml

Reference: paper PMC3621618, “Comparative measurement of CNP and NT-proCNP in human blood samples: a methodological evaluation” (Journal of Negative Results in Biomedicine, 2013)
